{"source": "patent US6605620B1", "about": "“Cyclic amine compounds and pharmaceutical composition containing the same” (Kowa Co., Ltd., priority 2001, dated 2003)", "system": "U937 cells adhered to HUVEC stimulated by TNFα", "test": "Inhibitory effect on cell adhesion (U937 adhesion to TNFα-stimulated HUVEC)", "type": "cell-based", "details": "Homo sapiens, fluorescence (PKH2) readout", "method": "The test was conducted by reference to the method by Ross et al. (J. Biol. Chem., 267 8537-8543 (1992)). More specifically, after human umbilical venous endothelial cells (HUVEC) were cultured on a 48-well plate to confluent growth, TNFα was added thereto. Upon elapsed time of 5 hours after the addition, U937, which was a human monocytic/histocytic cell fluorescence-labeled with PKH2 (product of Sigma-Aldrich Co., Ltd.), was added in a proportion of 1×10^6 cells per well. After the plate was left at rest at room temperature for 1 hour, unadhered U937 was washed out and lysed in 1% Triton X-100 to measure a remaining fluorescence intensity (excitation wavelength: 480 nm; measuring wavelength: 530 nm). HUVEC and U937 were cultured in EGM-2 (product of Sanko Junyaku K. K.) and 10% FCS-containing RPMI1640, respectively. […] The inhibitory activity was calculated out as IC50 value after inhibitory ratio at each concentration of test compounds was determined. The inhibitory ratio was calculated according to the equation […], wherein A is the number of U937 cells adhered to HUVEC stimulated by TNFα when no test agent was added, B is the number of U937 cells adhered to HUVEC not stimulated by TNFα when no test agent was added, and C is the number of U937 cells adhered to HUVEC stimulated by TNFα when the test agent was added. […]", "note": "Counter-ions that a name gives are not always drawn."}
{"compound": "CCN(Cc1ccnc(-c2cc(OC)c(OC)c(OC)c2)c1)C1CCN(Cc2ccnc(-c3cc(OC)c(OC)c(OC)c3)c2)CC1", "note": "[Example 40, 4-[N-Ethyl-N-[[2-(3,4,5-trimethoxyphenyl)pyridin-4-yl]methyl]amino]-1-[[2-(3,4,5-trimethoxyphenyl)pyridin-4-yl]methyl]piperidine Tetrahydrochloride]", "values": [{"measurement": "IC50", "result": 200, "unit": "nM"}]}
